Reference: patent US20230390324A1, “TREATMENT OF FATTY LIVER DISEASES” (TX MEDIC AB, priority 2020, published 2023)

System: 12 BioMAP® Diversity Plus human cell systems
Experiment: BioMAP Diversity PLUS phenotypic profiling in 12 primary human cell and co-culture systems
Type: cell-based
Conditions: benchmarked against Pirfenidone; FIG. 4
Description: Twelve primary human cell and co-cultures assays were used to assess the effects of dextran sulfate on clinically-relevant protein biomarkers of inflammation, cell growth and fibrosis as part of the quality controlled BioMAP® Diversity PLUS, commercially available service (Eurofins DiscoverX Corporation, Freemont, CA, USA; for full details https://www.discoverx.com). Dextran sulfate was tested in these assays at four concentrations: 4000 nMw 1300 nMw 400 nM and 150 nM. Human primary cells employed in the BioMAP® systems were used at passage 4 or earlier, derived from multiple donors (n=2 to 6), commercially purchased and handled according to the recommendations of the manufacturers. Human blood derived CD14+ monocytes were differentiated into macrophages in vitro before being added to the IMphg system (Eurofins DiscoverX Corporation). […]
Assays were derived from either single cell types or co-culture systems. […] Test agents prepared in either DMSO (small molecules; final concentration 0.1%) or PBS (biologics) were added at the indicated concentrations 1 h before stimulation, and cells remained in culture for 24 h or as otherwise indicated (48 h, MyoF system; 72 h, BT system (soluble readouts); 168 h, BT system (secreted IgG)). […] Soluble factors from supernatants were quantified using either HTRF® detection, bead-based multiplex immunoassay or capture ELISA. […]

Dextran sulfate
common activities with Pirfenidone (number): 5
differential activities versus Pirfenidone outside the normal range (number): 34
